Some of these results come from one statement about several compounds together.
Test: pH- and temperature-dependent activity and inactivation profiles
Type: biochemical
Details: at 50° C.; data not shown
Method: FIG. 2A represents the effect of various pH values on the activity of recombinant purified RL5 laccase. The activity was measured at 40° C. using 1 mM SGZ (syringaldazine) or DMP as substrate. The buffers (100 mM) used were: citrate (pH 3.0-5.5), MES (pH 5.5-7.0), HEPES (pH 7.0-8.0), Tris-HCl (pH 8.0-9.0) and glycine-NaOH (pH 9.0-12). The activity of RL5 for DMP reached an optimum at a broad pH ranging from 3.5-9.0, being optimal at 4.0-5.0; however, it maintained more than 70% activity at pH 3.5 and 9.0 (FIG. 2A).
FIG. 2B represents the pH inactivation of purified RL5 laccase in sodium citrate pH 4.5 (indicated with “∘”) or glycine-NaOH pH 9.0 (indicated with “[…]”) over a time period of 240 min. 100% activity in the purified protein sample equals 7.2 units/mg (measured at 40° C.).
FIG. 2C represents the effect of the temperature on the activity of recombinant purified RL5 laccase. The enzyme activity was assayed at each indicated temperature in sodium citrate pH 4.5 in the presence of 1 mM SGZ or DMP. Activity was monitored at 420 nm. Protein activity increased as the temperature was raised to a maximum at ˜60° C. […]
Laccase activity was determined spectrophotometrically in a thermostated spectrophotometer (Perkin-Elmer) at 40° C. in 100 mM sodium citrate buffer, pH 4.5 (1 ml). […] Oxidation of phenol red (75 μM) was determined by the decrease in absorbance at 432 nm. […]

B1: YfiH: DUF152 domain containing hypothetical protein from Escherichia coli, Gene Bank AAG57706, identified as laccase (FIG. 13) (protein, listed as Escherichia coli)
chain: MSKLIVPQWPLPKGVAACSSTRIGGVSLPPYDSLNLGAHCGDNPDHVEENRKRLFAAGNLPSKPVWLEQVHGKDVLNLTGEPYASKRADASYSNTPGRVCAVMTADCLPVLFCNRAGTEVAAAHAGWRGLCAGVLEETVSCFADNPENILAWLGPAIGPRAFEVGAEVREAFMAVDAEASTAFIQHGDKYLADIYQLARQRLANVGVEQIFGGDRCTYTENETFFSYRRDKTTGRMASFIWLI
modifications: Description of sequence amino acid sequence of protein YfiH with unknown function DUF152 from Escherichia coli (Gene Bank accession number AAG57706) (see Fig. 13)
In the case of B1, the thermal activity maintained is reported as “more than 80%”.
